# Data reported in patent publication US20230219925A1, “BENZO FIVE-MEMBERED NITROGEN HETEROCYCLIC COMPOUND AND APPLICATION THEREOF” (GUANGZHOU INSTITUTES OF BIOMEDICINE AND HEALTH CHINESE …, priority 2020, published 2023).
# Tested on: C4-2B
# Experiment: Cell viability (Cell-Titer GLO), C4-2B
# Conditions: read-out: Cell Viability IC50 C4-2B
compound,measurement,value
CNC(=O)c1ccc(N2C(=S)N(c3ccc(C#N)c(C(F)(F)F)c3)C(=O)C2(C)C)cc1F [Enzalutamide],IC50,23.6 ± 0.61 µM
